Entries after “also recorded” stand apart in the source; their conditions may differ.
Tests used:
[1] = test system: intact, bacterially derived minicells; assay: Loading of compounds into minicells by the small-scale protocol, extraction and HPLC quantification; set-up: species or system Salmonella enterica serovar Typhimurium; details: for molecules (copies) packaged per minicell / quantity packaged within the minicells (HPLC): small-scale protocol; for molecules (copies) packaged per minicell: co-incubation, from HPLC content by Avogadro's number, MTX: 300 μg/ml, overnight; for quantity packaged within the minicells (HPLC): loading solution FLUTAX-1 200 μg/ml, FCP 300 μg/ml, paclitaxel 600 pg/ml (pH 3, 37° C. overnight), TF.Pac 1 mg/ml
[2] = test system: intact, bacterially derived minicells; assay: HPLC quantification (UV250nm and relative fluorescence) of doxorubicin loading in the presence of folic acid; set-up: species or system Salmonella enterica serovar Typhimurium; details: 0, 50, 400 μg/ml folic acid in the loading solution

## 2′-B-alanyl taxol formate [TF.Pac]
[1]
  loading efficiency, fold less than for FLUTAX-1: ~5.4 fold
  molecules (copies) packaged per minicell: ~50,000 molecules per minicell
  quantity packaged within the minicells (HPLC): 78 ng per 1×10^9 minicells

## CC(=O)O[C@H]1C(=O)[C@]2(C)[C@@H](OC(=O)[C@H](C)NC(=O)c3ccc4c(c3)C(=O)OC43c4ccc(O)cc4Oc4cc(O)ccc43)C[C@H]3OC[C@@]3(OC(C)=O)[C@H]2[C@H](OC(=O)c2ccccc2)[C@]2(O)C[C@H](OC(=O)[C@H](O)[C@@H](NC(=O)c3ccccc3)c3ccccc3)C(C)=C1C2(C)C [FLUTAX-1]
[1]; relative to unmodified paclitaxel (Example 9)
  fold more molecules per minicell than paclitaxel: 127 fold
[1]
  molecules (copies) packaged per minicell: ~270,000 molecules per minicell
  quantity packaged within the minicells (HPLC): 570 ng per 1×10^9 minicells

## CC(=O)O[C@H]1C(=O)[C@@]2(C)[C@H]([C@H](OC(=O)c3ccccc3)[C@]3(O)C[C@H](OC(=O)[C@H](O)[C@@H](NC(=O)c4ccccc4)c4ccccc4)C(C)=C1C3(C)C)[C@]1(OC(C)=O)CO[C@@H]1C[C@@H]2O [paclitaxel]
[1]; paclitaxel versus its fluorescent derivatives
  fold fewer molecules per minicell than for FCP and FLUTAX-1, respectively: 110-130 fold
[1]; varying solvents, buffers, pH, cyclodextrin complexes, hydrotropes, membrane-destabilization methods
  paclitaxel-loading efficiency with additional approaches: 0-10 ng per 1×10^9 minicells

## doxorubicin
[2]
  effect of folic acid (fluorescence quencher) on loading of doxorubicin into minicells: affect adversely the loading of doxorubicin into minicells; also recorded: dose-dependently decreases the loading efficiency
